The source of these data is the supplement of paper PMC12889115.

The list shows a part of the results. These are raw signals, not scaled to a control.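 In the initial screen, polymyxin B was used at a concentration that permeabilizes Salmonella's outer membrane but not its inner membrane. Maximum growth was set by DMSO wells with or without polymyxin B. Since plates varied, data were ranked per plate, and compounds giving the lowest OD600 advanced as hits.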

For the assay, the system named is Salmonella enterica serovar Typhimurium SL1344. The experiment in a line: bacterial growth OD600 after 18 h with compound and polymyxin B; higher = more bacterial growth (less inhibition). Particulars: 50 µM, Mueller-Hinton broth.

Regarding `CC(C)C1CC(C(=O)NCCN2Cc3ccccc3OC(c3ccsc3)C2)CCO1` (centres undefined), the “bacterial growth OD600” value (polymyxin B 0.75 µg/mL) was found to be 0.722.
Turning to `COc1ccc(CC2(CCC(=O)NCCc3ccc(Cl)cc3)CCC(=O)N2)c(F)c1` (centres undefined), the “bacterial growth OD600” value (polymyxin B 0.75 µg/mL) came to 0.928.
For the compound `Cc1cc(C(=O)NC2CC(=O)N(CC3CCCCC3)C2)nc(C)n1` (centres undefined), the “bacterial growth OD600” value (polymyxin B 1 µg/mL) was 1.1.
On to `Cc1ccccc1C(CC(=O)N1CCC(O)CC1)c1ccccc1` (centres undefined), for which the “bacterial growth OD600” value (polymyxin B 1 µg/mL) was found to be 0.891.
`CCOC(=O)c1csc(CCNC(=O)CCC2(Cc3ccc(OC)cc3F)CCC(=O)N2)n1` (centres undefined): the “bacterial growth OD600” value (polymyxin B 0.75 µg/mL) worked out at 0.761.
Regarding `CSCCC(=O)N1CCC2(CCCN(Cc3ccc(F)c(F)c3)C2=O)C1` (centres undefined), the “bacterial growth OD600” value (polymyxin B 1 µg/mL) came to 0.997.
Regarding `CN1CCCC1CCNC(=O)C1(N2CCCCC2)Cc2ccccc2C1` (centres undefined), under “polymyxin B 0.75 µg/mL”, the “bacterial growth OD600” value is 0.845.
With `CC(O)CNC(=O)c1ccc(OC2CCN(CCc3ccccc3)CC2)cc1` (centres undefined), the “bacterial growth OD600” value (polymyxin B 1 µg/mL) came to 1.29.
`CCn1cc(CN2CCOc3ccc(C4=Cc5ccccc5C4)cc3C2)c(C)n1`: under “polymyxin B 0.75 µg/mL”, the “bacterial growth OD600” value stood at 0.004.
The same measure, in the same setting: the figure for `Cc1nn(C)cc1CN1CCOc2ccc(C3=Cc4ccccc4CC3)cc2C1` is 0.004; for `COCCCN1C(=O)CC(CC(=O)NCC2(c3ccccc3)CCOCC2)(c2ccccc2)C1=O` (centres undefined) it is 0.863.
As to `CCCCN(C)C(=O)CC1C(=O)NCCN1Cc1ccc(OC)c(OC)c1` (centres undefined), the “bacterial growth OD600” value (polymyxin B 0.75 µg/mL) came out at 0.856.
For `CCOC(=O)C1(CCc2ccccc2)CCCN(Cc2ccc(OC)c(O)c2)C1` (centres undefined), for the setting “polymyxin B 0.75 µg/mL”, the “bacterial growth OD600” value turned out to be 0.914.
Take `CCn1cc(CNc2ccc(-c3nc(COC)no3)cn2)cn1`: for the setting “polymyxin B 1 µg/mL”, the “bacterial growth OD600” value amounted to 1.03.
As to `COc1cccc(CN2CCc3nnc(C(CC(C)C)NC(=O)c4cc(C)cc(C)c4)n3CC2)c1O` (centres undefined), under “polymyxin B 0.75 µg/mL”, the “bacterial growth OD600” value is 0.038.
Same read-out and setting: the figure for `Cc1ncc(-c2ccc(F)cc2)c(C2CCCN(C(=O)c3ccc(C(F)(F)F)cc3)C2)n1` (centres undefined) is 0.002; for `COc1ccccc1C1(CC(=O)N2CCN(C3CCCCC3)CC2)CC(=O)N(C)C1=O` (centres undefined) it is 0.858.
Regarding `Cc1n[nH]c(C)c1CNC(=O)c1cc(CN(C)Cc2ccccc2)on1`, the “bacterial growth OD600” value (polymyxin B 0.75 µg/mL) was found to be 0.832.
Same read-out and setting: the figure for `COC(=O)c1cc(CNC(=O)Cc2nnc(-c3ccccc3)[nH]2)cc(NC(=O)/C=C/c2ccccc2)c1` is 0.8.
